# Reference: patent US8258256B2, “Compositions and methods for the treatment of cancer” (The Johns Hopkins University, priority 2006, dated 2012)
# Protein sequences, listed by entry. Tags and fused reporters are not part of them. Residues count along the entry.
# UniProt Q04609, 44-750 limits assumed: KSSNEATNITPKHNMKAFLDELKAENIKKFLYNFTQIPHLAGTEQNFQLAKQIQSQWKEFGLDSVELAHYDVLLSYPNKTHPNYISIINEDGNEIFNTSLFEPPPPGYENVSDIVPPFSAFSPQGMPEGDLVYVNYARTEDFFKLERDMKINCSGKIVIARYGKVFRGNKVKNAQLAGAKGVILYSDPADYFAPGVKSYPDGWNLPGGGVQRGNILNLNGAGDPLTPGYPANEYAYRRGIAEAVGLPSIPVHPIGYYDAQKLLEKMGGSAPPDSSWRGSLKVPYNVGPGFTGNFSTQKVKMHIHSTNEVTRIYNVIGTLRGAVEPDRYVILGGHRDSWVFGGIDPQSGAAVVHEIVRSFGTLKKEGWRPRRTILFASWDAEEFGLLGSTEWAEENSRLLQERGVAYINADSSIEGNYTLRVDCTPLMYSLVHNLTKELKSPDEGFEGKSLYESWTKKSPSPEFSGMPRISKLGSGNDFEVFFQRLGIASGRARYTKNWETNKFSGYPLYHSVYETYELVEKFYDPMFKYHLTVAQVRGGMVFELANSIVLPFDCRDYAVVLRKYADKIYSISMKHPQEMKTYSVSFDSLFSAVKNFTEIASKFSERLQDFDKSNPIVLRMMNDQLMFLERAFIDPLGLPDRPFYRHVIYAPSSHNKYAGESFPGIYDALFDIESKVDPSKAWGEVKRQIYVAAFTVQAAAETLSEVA
# pIC50: −log10 of the molar value. At least one compound was matched to its structure with a doubt left. Some entries share one result that the patent states for a list of compounds. Ends that are not written are not given here.
# Molecular target: T1, His-PSMA (Homo sapiens, UniProt Q04609)
# T1 construct: made in house; host or cells: Drosophila Schneider's S2 cells, vector pMT/BiP/V5-HisA (pMT-His-PSMA), purified from conditioned media on Ni-NTA
# Assay: PSMA enzymatic assay (NAALADase activity, 3H-NAAG hydrolysis)
# Assay type: biochemical
# Protocol: FIG. 4 depicts the inhibition of NAALADase activity of PSMA by monomeric and dimeric peptides. His-PSMA hydrolysis of ^3H-NAAG was assayed as described in the methods in the absence or presence of indicated concentration of monomeric or dimeric peptide. After 15 min incubation at 37° C. amount of released 3H-Glu was determined. Percent inhibition is the ratio of amount of 3H-Glu released in presence of peptide compared to control (i.e. His-PSMA only). Data plotted are average of duplicate experiments and best fit line is included.
# PSMA Enzymatic Assay The enzymatic activity assay for PSMA was adapted as previously described by Tiffany et al. (21). PSMA (5 nM) incubated with or without peptides was added to PSMA assay buffer (10 mM CoCl2, 50 mM Tris, pH 7.4). Following a 30 mins incubation at 37° C., N-acetyl-aspartyl-3H glutamate (3H-NAAG) (NEN, Boston, Mass.) was added to final concentration of 25 nM and reactions incubated for 15 mins at 37° C. Data were collected during linear phase of hydrolysis (i.e. less than 20% cleavage of total substrate).
Substance,"inhibition of activity (NAAG hydrolysis) (100 μM peptide, after 30 min incubation) [%]","pIC50 (PSMA 5 nM, 30 min preincubation with peptide, 3H-NAAG 25 nM, 15 min 37° C., read-out: IC50 for inhibition of NAAG hydrolysis (NAALADase activity of PSMA))"
"HHWA [short control peptide containing the apparent consensus motif from the phage display, reference compound]",< 5,–
WQPDTAHHWATL-OH,–,4.64
